Results: patent US20220064246A1
Results are given in words; binding and its absence hold for the method and conditions named. Some results given as binding are weak or reduced against the parent protein; the word gives no strength.

Target: T1, EBI3 (Epstein-Barr virus induced gene 3) subunit (IL-27β), natural, produced by mouse DC cells (CD11c+ cells) (mouse) (UniProt O35228)
T1 sequence (looked up): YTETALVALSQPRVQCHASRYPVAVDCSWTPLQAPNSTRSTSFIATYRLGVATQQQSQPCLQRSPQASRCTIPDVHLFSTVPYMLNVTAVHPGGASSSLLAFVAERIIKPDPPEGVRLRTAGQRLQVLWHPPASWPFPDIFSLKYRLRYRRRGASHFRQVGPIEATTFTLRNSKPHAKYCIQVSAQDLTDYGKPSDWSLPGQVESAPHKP
Assay: sandwich ELISA (EBI3 capture, p40 detection) on supernatant of stimulated mouse CD11c+ DC cells

B1: p40 subunit (subunit beta of IL-12, IL-12β), natural, produced by mouse DC cells (CD11c+ cells) (ligand, UniProt P43432 23-335, looked up)
chain: MWELEKDVYVVEVDWTPDAPGETVNLTCDTPEEDDITWTSDQRHGVIGSGKTLTITVKEFLDAGQYTCHKGGETLSHSHLLLHKKENGIWSTEILKNFKNKTFLKCEAPNYSGRFTCSWLVQRNMDLKFNIKSSSSSPDSRAVTCGMASLSAEKVTLDQRDYEKYSVSCQEDVTCPTAEETLPIELALEARQQNKYENYSTSFFIRDIIKPDPPKNLQMKPLKNSQVEVSWEYPDSWSTPHSYFSLKFFVRIQRKKEKMKETEEGCNQKGAFLVEKTSTEVQCKGGNVCVQAQDRYYNSSCSKWACVPCRVRS
- binding: binds
